The other results are listed elsewhere or left out.
Each target was assayed with Cc1ncc(-c2ccnc(Nc3ccc(S(C)(=O)=O)cc3)n2)n1C(C)C (assay: log2 fold change, soluble protein after heating vs DMSO (PISA); higher = thermal stabilisation; K562 cells, 10 uM, 30 min; active = over 0.2 and 3.5 SD of the protein, either way, in both replicates (recomputed)).
Outline: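 K562 cells (2×10^6 cells/mL) were treated with 10 μM compound for 30 min, and aliquots were heated for 3 min over 48°C-58°C. Pooled aliquots were extracted in PBS with 0.5% NP-40 at 4°C, and the supernatant after 21,000xg for 90 min was measured by TMTpro 16plex LC-MS/MS with channel sums equalised. Reported thermal stability, relative to control samples and from duplicates, is a log2 fold change.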

Protein sequences, listed by entry. Tags and fused reporters are not part of them. Lines headed by an entry give the natural chain unless they say otherwise; changes in a name come on top.
UniProt O00483, whole entry, looked up: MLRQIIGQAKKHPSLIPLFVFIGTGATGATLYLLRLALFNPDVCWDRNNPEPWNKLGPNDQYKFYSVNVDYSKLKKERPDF
UniProt Q6P582, whole entry, looked up: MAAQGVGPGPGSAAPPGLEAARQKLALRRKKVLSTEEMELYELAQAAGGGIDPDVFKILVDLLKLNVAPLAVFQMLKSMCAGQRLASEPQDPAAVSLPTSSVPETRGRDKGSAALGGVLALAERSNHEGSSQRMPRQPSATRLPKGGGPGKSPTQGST
UniProt O95139, whole entry, looked up: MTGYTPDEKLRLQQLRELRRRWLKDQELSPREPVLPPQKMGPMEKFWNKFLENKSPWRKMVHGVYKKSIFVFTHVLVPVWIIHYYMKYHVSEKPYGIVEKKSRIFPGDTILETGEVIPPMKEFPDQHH
UniProt P12036: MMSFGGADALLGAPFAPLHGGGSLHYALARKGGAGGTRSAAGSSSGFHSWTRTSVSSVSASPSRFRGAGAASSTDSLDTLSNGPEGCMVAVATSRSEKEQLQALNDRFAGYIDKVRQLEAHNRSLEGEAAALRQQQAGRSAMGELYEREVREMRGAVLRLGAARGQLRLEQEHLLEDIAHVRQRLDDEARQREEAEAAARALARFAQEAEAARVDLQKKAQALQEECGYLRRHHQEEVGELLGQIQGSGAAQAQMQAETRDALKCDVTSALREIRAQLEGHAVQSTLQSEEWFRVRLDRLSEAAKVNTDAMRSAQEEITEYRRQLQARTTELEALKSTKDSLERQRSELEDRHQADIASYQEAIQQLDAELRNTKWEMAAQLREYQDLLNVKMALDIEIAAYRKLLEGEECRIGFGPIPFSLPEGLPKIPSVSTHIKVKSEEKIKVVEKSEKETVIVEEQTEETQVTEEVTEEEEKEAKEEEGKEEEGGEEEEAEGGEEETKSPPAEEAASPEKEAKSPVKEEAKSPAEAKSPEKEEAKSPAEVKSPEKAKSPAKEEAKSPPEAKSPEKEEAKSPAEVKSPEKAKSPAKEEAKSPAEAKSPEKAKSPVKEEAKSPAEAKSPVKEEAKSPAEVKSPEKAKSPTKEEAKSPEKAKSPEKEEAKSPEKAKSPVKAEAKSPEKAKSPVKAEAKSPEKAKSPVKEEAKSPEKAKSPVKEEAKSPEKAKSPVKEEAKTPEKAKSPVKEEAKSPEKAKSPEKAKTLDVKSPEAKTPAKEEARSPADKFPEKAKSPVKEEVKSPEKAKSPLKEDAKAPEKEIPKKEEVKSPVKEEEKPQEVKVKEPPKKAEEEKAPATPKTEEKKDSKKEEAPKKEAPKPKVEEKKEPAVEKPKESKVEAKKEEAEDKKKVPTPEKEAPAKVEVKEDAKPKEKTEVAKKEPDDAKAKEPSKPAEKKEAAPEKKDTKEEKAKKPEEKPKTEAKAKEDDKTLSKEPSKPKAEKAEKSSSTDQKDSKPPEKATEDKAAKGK
UniProt O43920, whole entry, looked up: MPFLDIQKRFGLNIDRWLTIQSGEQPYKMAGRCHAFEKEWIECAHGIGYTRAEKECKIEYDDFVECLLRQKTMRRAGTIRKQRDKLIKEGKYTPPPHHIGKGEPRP
UniProt Q6IA69: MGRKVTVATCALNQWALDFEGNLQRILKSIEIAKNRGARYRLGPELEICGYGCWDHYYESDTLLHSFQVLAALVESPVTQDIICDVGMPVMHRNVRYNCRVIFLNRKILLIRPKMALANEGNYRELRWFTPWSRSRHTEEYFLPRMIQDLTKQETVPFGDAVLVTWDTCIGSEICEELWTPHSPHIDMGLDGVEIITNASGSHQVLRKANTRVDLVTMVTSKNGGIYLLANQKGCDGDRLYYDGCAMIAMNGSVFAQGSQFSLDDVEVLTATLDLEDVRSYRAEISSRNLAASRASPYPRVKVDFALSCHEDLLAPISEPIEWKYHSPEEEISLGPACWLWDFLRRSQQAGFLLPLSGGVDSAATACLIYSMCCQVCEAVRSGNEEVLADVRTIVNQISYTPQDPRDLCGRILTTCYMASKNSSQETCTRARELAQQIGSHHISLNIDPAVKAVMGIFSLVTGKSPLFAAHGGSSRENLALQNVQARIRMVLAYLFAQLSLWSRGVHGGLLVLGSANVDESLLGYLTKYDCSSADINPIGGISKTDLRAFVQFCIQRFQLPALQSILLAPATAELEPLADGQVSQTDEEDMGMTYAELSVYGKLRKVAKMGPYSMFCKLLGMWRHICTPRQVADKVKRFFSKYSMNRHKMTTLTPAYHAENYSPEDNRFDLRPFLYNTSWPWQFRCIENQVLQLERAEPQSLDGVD
UniProt Q8NC96: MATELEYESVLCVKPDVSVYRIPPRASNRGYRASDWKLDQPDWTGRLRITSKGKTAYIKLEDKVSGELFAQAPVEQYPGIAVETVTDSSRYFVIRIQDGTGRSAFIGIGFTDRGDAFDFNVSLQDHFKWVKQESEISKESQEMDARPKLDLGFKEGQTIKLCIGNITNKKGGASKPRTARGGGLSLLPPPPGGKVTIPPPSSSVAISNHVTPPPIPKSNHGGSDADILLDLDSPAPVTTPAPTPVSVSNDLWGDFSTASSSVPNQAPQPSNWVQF
UniProt Q9Y5N5: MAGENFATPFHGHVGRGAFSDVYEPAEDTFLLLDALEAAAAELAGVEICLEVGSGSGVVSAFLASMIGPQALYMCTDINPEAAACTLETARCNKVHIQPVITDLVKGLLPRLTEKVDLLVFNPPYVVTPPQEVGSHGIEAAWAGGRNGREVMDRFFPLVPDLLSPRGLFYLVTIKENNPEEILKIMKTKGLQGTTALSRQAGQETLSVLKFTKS
UniProt O76041: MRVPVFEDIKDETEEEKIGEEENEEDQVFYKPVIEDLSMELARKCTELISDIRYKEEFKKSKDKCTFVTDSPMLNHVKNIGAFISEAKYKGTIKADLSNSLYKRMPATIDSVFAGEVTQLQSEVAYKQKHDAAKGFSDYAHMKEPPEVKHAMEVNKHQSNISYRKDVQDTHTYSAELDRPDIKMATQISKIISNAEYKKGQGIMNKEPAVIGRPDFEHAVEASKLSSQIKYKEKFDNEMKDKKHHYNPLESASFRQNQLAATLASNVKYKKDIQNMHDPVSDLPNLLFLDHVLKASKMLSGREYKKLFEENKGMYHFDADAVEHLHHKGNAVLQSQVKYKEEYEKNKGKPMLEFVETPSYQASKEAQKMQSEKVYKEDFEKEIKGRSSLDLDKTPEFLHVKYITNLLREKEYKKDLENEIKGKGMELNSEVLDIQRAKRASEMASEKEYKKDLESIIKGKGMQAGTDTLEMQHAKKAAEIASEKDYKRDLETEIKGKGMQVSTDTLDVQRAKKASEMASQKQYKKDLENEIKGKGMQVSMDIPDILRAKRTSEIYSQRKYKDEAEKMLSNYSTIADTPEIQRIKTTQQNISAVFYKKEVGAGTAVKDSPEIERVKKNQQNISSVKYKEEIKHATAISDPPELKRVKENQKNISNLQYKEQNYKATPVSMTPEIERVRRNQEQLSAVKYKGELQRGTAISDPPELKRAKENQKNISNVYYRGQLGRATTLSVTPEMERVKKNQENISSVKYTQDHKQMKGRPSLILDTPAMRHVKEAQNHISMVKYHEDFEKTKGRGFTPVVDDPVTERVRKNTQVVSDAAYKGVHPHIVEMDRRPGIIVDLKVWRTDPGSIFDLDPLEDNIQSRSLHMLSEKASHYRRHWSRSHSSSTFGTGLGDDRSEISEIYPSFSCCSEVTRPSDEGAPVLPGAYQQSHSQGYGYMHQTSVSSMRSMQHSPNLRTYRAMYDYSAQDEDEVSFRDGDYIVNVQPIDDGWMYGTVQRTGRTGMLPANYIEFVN
UniProt O95182, whole entry, looked up: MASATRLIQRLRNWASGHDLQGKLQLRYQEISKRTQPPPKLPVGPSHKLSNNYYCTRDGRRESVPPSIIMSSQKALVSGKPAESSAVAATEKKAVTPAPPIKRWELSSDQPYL
UniProt Q8IW45: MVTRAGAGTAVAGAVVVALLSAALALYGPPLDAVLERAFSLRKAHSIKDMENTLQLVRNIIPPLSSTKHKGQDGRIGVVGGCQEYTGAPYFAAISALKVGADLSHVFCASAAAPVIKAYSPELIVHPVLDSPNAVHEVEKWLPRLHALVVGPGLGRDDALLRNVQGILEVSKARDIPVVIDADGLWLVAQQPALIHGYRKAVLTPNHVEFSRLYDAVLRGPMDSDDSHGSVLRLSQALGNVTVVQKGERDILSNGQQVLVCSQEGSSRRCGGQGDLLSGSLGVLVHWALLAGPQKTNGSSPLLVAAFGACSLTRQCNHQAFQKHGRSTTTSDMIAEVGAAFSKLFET
UniProt Q9UHQ1: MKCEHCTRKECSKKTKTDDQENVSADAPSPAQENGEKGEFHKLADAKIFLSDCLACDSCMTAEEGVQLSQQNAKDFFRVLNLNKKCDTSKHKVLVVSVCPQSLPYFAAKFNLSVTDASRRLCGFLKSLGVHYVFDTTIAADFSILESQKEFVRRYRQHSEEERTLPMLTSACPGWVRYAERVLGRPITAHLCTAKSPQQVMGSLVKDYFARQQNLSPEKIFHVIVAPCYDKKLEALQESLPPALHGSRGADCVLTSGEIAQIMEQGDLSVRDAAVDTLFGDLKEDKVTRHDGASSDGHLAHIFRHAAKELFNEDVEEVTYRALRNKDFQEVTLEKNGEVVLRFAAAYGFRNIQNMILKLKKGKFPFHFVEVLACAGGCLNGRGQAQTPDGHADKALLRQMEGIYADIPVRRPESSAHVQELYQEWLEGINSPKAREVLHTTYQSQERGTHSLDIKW
UniProt Q15003, whole entry, looked up: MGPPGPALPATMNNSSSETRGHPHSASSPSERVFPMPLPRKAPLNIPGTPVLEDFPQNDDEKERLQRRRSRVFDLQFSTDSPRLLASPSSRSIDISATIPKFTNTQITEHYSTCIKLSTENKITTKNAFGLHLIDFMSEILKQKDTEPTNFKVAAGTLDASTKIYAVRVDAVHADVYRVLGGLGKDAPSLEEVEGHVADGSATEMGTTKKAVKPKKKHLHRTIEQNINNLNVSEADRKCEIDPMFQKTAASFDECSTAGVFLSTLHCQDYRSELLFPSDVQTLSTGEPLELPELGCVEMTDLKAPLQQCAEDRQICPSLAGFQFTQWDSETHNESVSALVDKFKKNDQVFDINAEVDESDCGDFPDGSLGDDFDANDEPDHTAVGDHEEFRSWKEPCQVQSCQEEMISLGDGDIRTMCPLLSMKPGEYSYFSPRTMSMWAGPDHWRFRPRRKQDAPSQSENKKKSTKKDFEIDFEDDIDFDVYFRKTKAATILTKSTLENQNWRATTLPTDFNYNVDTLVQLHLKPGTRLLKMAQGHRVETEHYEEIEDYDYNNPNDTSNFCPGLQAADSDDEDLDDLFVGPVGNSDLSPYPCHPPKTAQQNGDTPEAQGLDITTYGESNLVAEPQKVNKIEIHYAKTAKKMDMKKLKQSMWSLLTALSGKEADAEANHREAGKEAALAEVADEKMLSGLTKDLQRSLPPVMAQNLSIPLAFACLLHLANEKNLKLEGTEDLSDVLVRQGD
UniProt Q969V3: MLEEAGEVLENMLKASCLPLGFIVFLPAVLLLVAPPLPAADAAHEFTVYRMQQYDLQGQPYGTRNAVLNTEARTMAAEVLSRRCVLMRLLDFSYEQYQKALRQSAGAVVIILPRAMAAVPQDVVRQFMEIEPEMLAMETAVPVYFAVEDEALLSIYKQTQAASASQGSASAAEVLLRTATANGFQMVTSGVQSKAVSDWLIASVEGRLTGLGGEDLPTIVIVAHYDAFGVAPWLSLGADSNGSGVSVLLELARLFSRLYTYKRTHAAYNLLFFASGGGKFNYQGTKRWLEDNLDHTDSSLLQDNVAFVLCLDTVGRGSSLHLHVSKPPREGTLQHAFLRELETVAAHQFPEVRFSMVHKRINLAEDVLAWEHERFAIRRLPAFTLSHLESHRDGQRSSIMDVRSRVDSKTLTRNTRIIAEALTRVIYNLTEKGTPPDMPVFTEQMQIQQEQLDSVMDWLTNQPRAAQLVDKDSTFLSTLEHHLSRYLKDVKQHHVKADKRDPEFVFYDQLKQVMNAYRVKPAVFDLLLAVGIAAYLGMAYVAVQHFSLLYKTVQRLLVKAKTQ
UniProt Q8NCW5: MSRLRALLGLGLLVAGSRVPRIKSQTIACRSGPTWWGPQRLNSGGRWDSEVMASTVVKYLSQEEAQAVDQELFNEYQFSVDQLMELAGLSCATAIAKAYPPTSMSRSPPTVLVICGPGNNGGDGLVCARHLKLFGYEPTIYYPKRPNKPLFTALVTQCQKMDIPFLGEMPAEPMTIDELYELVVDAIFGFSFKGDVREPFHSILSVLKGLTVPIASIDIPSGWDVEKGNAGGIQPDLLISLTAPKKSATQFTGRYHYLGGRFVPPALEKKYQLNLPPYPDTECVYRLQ
UniProt Q99733: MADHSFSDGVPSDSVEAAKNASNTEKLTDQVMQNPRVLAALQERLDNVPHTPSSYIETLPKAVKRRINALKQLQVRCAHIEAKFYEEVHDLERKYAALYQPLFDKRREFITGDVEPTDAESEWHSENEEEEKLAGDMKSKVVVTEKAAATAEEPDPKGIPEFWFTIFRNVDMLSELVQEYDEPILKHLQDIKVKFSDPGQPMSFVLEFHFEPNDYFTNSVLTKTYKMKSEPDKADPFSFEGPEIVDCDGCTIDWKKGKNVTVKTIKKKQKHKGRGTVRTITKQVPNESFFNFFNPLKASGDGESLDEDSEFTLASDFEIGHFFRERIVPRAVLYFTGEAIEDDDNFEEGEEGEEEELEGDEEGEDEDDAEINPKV

log2 fold change, inactive:
NDUFA4 (UniProt O00483) -0.074
MZT2A (UniProt Q6P582) -0.099
NDUFB6 (UniProt O95139) -0.004
NAA30 (UniProt Q147X3) -0.053
NDUFAF5 (UniProt Q5TEU4) 0.01
NEFH (UniProt P12036) -0.023
NCAPG2 isoform 2 (UniProt Q86XI2) 0.021
NDUFS5 (UniProt O43920) -0.003
NAA10 (UniProt P41227) -0.018
NDRG2 (UniProt Q9UN36) 0
NADSYN1 (UniProt Q6IA69) -0.035
NCOR2 (UniProt C9J0Q5) -0.137
NAP1L1 (UniProt P55209) 0.022
NECAP1 (UniProt Q8NC96) -0.038
NDUFA2 (UniProt O43678) -0.039
NCOR1 (UniProt O75376) 0.058
NAPRT (UniProt Q6XQN6) 0
NA, A0A0B4J2A0 0.006
N6AMT1 (UniProt Q9Y5N5) 0.028
NDUFA10 (UniProt O95299) -0.011
NEBL isoform 2 (UniProt O76041) -0.028
NDUFA7 (UniProt O95182) -0.059
NAXD (UniProt Q8IW45) -0.051
NARF (UniProt Q9UHQ1) 0.048
NCAPH (UniProt Q15003) 0.041
NCAPD2 (UniProt Q15021) 0.08
NCLN (UniProt Q969V3) -0.03
NDUFAF2 (UniProt Q8N183) -0.034
NAXE (UniProt Q8NCW5) -0.012
NDUFA11 (UniProt Q86Y39) -0.015
NAP1L4 isoform 2 (UniProt Q99733) 0.021
NDUFB5 (UniProt O43674) -0.017
NDEL1 isoform 2 (UniProt Q9GZM8) -0.107
NCDN isoform 3 (UniProt Q9UBB6) 0.002

Two records picked at random from those above:
log2 fold change, inactive:
NCAPD2 (UniProt Q15021) 0.08
NDUFAF5 (UniProt Q5TEU4) 0.01

— the supplement of paper PMC10849652
